Measurements as given in patent US20260193227A1, “THERAPEUTIC COMPOUNDS AND METHODS” (UNIVERSITY OF IOWA RESEARCH FOUNDATION, priority 2022, published 2026).
Some of these results come from one statement about several compounds together.

Target: T1, RAD52-ssDNA interaction (Homo sapiens, UniProt P43351)
T1 construct: 6xHis; made in house
T1 sequence (P43351 1-418): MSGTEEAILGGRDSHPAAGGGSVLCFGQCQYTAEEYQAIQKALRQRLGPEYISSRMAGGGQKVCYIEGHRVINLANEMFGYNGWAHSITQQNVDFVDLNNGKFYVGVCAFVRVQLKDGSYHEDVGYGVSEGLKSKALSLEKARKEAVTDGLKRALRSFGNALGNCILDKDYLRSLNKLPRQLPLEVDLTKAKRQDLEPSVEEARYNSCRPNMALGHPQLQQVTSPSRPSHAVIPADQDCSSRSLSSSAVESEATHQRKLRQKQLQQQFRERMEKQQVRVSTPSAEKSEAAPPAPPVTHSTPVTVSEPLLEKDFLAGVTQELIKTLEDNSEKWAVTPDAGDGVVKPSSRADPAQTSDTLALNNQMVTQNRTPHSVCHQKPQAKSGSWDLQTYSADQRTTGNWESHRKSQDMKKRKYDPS
Assay: FRET-based inhibition of the RAD52-ssDNA interaction
Format: binding
Settings: 6 nM RAD52, 1 nM Cy3-dT30-Cy5 ssDNA, 25° C.; value ± fitting error
Procedure: Proteins: The 6×His-tagged human RAD52 proteins (wild type and mutants) and untagged human RPA were expressed and purified as previously described in (Hengel S R, eLife. 2016; 5; Grimme J M, et al., Nucleic Acids Res. 2010; 38(9):2917-30; and Henricksen L A, et al., The Journal of biological chemistry. 1994; 269(15):11121-32). RPA and RAD52 protein concentrations were determined by measuring absorbance at 280 nm using extinction coefficients of 88,830 M^−1 cm^−1 and 40,470 M^−1 cm^−1, respectively.
FRET-based DNA binding and inhibition assays: FRET-based that monitor the RAD52-ssDNA, RPA-ssDNA and RAD52-RPA-ssDNA binding were carried out as previously described (Hengel S R, eLife. 2016; 5; Grimme J M, et al., Nucleic Acids Res. 2010; 38(9):2917-30; and Grimme J M, Spies M. FRET-based assays to monitor DNA binding and annealing by Rad52 recombination mediator protein. Methods in molecular biology (Clifton, NJ). 2011; 745:463-83) using Cary Eclipse Spectrofluorimeter (Agilent) at 25° C., in 5 mm quartz cuvettes, and in buffer containing 30 mM Tris-Acetate (pH 7.5) and 1 mM DTT. Cy3 dye was excited at 530 nm and its emission was monitored at 565 nm. Emission of Cy5 acceptor fluorophore excited through the energy transfer from Cy3 donor is monitored at 660 nm simultaneously with emission of Cy3 dye. Both the excitation and the emission slits were set to 10 nm. All experiments were carried out using 1 nM (molecules) Cy3-dT30-Cy5 ssDNA. The optimal concentrations of the RAD52 (6 nM) and RPA (1 nM) proteins were selected by titrating the respective protein into 1 nM Cy3-dT30-Cy5 solution, and chosen based on the largest separation of the FRET values corresponding to the protein bound and free DNA.
The inhibition of the RAD52-ssDNA, RPA-ssDNA and RAD52-RPA-ssDNA complexes was evaluated by titrating each compound to the respective complex, measuring Cy3 and Cy5 fluorescence, and calculating FRET as previously described (Hengel, S. R., et al., eLife, 5).
Spectral properties of many compounds overlapped with the Cy3 and Cy5 fluorescence. To correct the calculated FRET values for the compound signal, the fluorogenic compounds were titrated into buffer and into solution of 1 nM Cy3-dT30-Cy5. For all tested compounds, the change in the signal in the Cy3 and Cy5 channels with and without Cy3/Cy5-labeled DNA present was the same. […] To account for the dye fluorescence, for each compound concentration, the apparent change in FRET of the ssDNA in the presence the compound was subtracted from the respective FRET signal of the RAD52-ssDNA, RPA-ssDNA or RAD52-ssDNA-RPA complex at the same inhibitor concentration. The IC50 values were calculated by fitting the corrected FRET data to the four-parameter dose response model using GraphPad Prism. All data are shown as average for at least three independent experiments ±standard deviation. The IC50 values are presented with their respective fitting error.

| SMILES | inhibition of the RAD52-SSDNA interaction, IC50 (μM) |
| --- | --- |
| O=C(Cn1cc([N+](=O)[O-])cc(F)c1=O)c1c[nH]c2ccc(F)cc12 [Example 2] | low μM range |
| Cc1cc([N+](=O)[O-])cn(CC(=O)c2c[nH]c3ccc(Cl)cc23)c1=O [Example 3] | low μM range |
| Cc1ccn(CC(=O)c2c[nH]c3ccc(F)cc23)c(=O)c1[N+](=O)[O-] [Example 4] | low μM range |
| O=C(Cn1cc([N+](=O)[O-])cc(Cl)c1=O)c1c[nH]c2ccc(F)cc12 [Example 5] | low μM range |
| Cc1c([N+](=O)[O-])ccn(CC(=O)c2c[nH]c3ccc(Br)cc23)c1=O [Example 6] | low μM range |
| O=C(Cn1cc([N+](=O)[O-])cc(Br)c1=O)c1c[nH]c2ccc(Cl)cc12 [Example 7] | low μM range |
